Laboratory results from PMC10433963.
Results are given in words; binding and its absence hold for the method and conditions named. In cells and extracts the contact can be indirect. Here binding means that the protein was enriched with, or labelled near, the bait; the list need not be complete. No binding means not detected with the bait.

Chains of the proteins cited; added tags and fusions are not shown. Residues count along the entry.
ClpC1^NTD (ClpC1 N-terminal domain alone, aa 1 to 147, C-terminal 3xFLAG) (A0R574, residues 1-147): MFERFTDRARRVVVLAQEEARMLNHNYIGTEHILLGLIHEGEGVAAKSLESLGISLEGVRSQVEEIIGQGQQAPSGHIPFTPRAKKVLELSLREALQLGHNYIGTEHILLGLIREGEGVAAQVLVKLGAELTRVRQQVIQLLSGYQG
ClpC1^CORE (ClpC1 lacking the NTD, aa 158 to 848, C-terminal 3xFLAG) (A0R574, residues 158-848): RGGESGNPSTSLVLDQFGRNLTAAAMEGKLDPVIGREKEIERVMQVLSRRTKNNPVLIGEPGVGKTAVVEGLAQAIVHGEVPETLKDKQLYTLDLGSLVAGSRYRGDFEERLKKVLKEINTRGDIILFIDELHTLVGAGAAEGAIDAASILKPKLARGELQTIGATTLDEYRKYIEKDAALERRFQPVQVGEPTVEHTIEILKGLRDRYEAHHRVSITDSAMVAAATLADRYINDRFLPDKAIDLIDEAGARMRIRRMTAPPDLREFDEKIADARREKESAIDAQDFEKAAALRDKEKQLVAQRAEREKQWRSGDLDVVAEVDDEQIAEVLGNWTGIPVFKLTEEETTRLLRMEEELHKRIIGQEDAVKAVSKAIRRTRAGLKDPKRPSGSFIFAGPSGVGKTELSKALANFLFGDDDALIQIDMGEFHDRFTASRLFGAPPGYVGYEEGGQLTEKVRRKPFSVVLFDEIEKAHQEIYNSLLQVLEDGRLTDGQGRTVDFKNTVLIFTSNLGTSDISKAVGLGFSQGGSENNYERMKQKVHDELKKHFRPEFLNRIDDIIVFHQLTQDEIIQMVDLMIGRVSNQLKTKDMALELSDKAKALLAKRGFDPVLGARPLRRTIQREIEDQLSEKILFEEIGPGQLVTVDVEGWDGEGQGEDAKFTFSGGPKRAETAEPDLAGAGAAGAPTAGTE

B1: Glutamine synthetase (GS) (EC 6.3.1.2) (protein, UniProt A0R079 1-478)
chain: MAEKTSDDIFKLIKDENVEYVDIRFCDLPGVVQHFSIPASAFDESVFEDGLAFDGSSVRGFQSIHESDMMLLPDPNTARIDPFRAAKTLNMNFFVHDPFTREAYSRDPRNVARKAENYLASTGIADTAFFGAEAEFYIFDSVSFDSKINGTFYEVDSESGWWNTGEPFESDGSANRGYKVRPKGGYFPVAPYDHYVDLRDQMATNLQNAGFTLERGHHEVGTAGQAEINYKFNTLLAAADDVLLFKYIIKNTAWQAGKTVTFMPKPLFGDNGSGMHAHQSLWKDGQPLFHDESGYAGLSDIARHYIGGILHHAPSLLAFTNPTVNSYKRLVPGYEAPINLVYSQRNRSACVRIPITGNNPKAKRLEFRCPDSSGNPYLAFAAMLMAGIDGIKKKIEPLQPVDKDLYELPPDEAAAIPQAPTSLSAVIDKLEEDHEYLTEGGVFTEDLIETWISYKRENEIMPIQIRPHPYEFSLYYDV
B2: Chaperone protein DnaJ2 (protein, UniProt A0R0T8 1-381)
chain: MARDYYGLLGVSKGASDSEIKRAYRRLARELHPDVNPDEEAQHRFTEIQQAYEVLSDPEKRRIVDMGGDPMESVGGAPNGFGGFGGLGDVFEAFFGGGTTSRGPIGRVRPGSDSLLRMRLDLEECATGVTKEVTVETAVLCDLCHGKGTNGNSSPATCDTCGGRGEIQTVQRSLLGQVMTSRPCPVCGGVGEVIPDPCHRCGGDGRVRARRDISVKIPAGVGDGMRVRLAAQGEVGPGGGPAGDLYVEVHEKPHDVFVRDGDDLHCTISVPMVDAALGCTVTVDAILDGPTELTIPPGTQPGSVTTLRGHGMPHLRSGVRGDLHAHIDVVVPTRLENSDIELLRKFKENRTRDTASVRTAQGSAGSGGGLFSRLRETFTGR
B3: Lipoarabinomannan carrier protein LprG (protein, UniProt A0QWU8 26-236)
chain: CSSSSETSDAPLPDGAALLQESASKTKTQQSVHLLLTVQGKVDGLPVEKLDGDLTNAPAVAAEGTADLIAFGQKIADAKFVIADGNLYAALTPGDPLSNYGAAANIYDVSAILNPDTGLANVLANFSDATADGRESINGTEAVRVKGNVSADAVNKIAPALKADGPVPGTAWITEDDHTLLQAQLEPTPGNSVTMTLSDWGKQVNVTKPAA
B4: 35-kDa protein (protein, UniProt A0QVU2 1-279)
chain: MANPFVKAWKYLMALFSSKVDEYADPKVQIQQAIEDAQRQHQALTQQAAQVIGNQRQLEMRLNRQLADIEKLQVNVRQALTLADQATAAGDVAKATEYNNAAEAFAAQLVTAEQSVEDLKGLHDQALQAAGQAKKAVEQNAMMLQQKIAERTKLLSQLEQAKMQEQVSSSLRSMSELAAPGTTPSLDEVRQKIERRYANAMGEAELAQNSVQGRMMEIQQASVQMAGHSRLEQIRASMRGEALPSGGATSTPATPSTQGTPSDPATNQTPPNTENPLGQ
B5: Nitroreductase (protein, UniProt A0R2L3 1-217)
chain: MEFTDVVRTTAAIRQFTGDPLPDDVLRRILDNARFAPSGGNRQGTRVVVIRDRDTREALAELTITGSRRYIAQKRIGENPWNPLHPTAVTEADLAAVDVPRATPLLDAAVVLVVCVDLGVVAAFDQDLDRIGVVSGASVYPFVWNILLSARNEGFGGVLTTMAIAEEPKVKELLAIPDDYAVAAVLPLGKPVHQPTKLTRKPVSEIATRERFDGAPF
B6: Sec-independent protein translocase protein TatA (protein, UniProt A0QZ40 1-81)
chain: MGGLQPWHWVIVIAVFVLLFGAKKLPDAARSLGKSMRIFKSEIKEMQAESKGDEPKPATPIASERVDTTAPEQQSTDRHTA
B7: 4-Aminobutyrate transaminase (EC 2.6.1.19) (protein, UniProt A0R6V5 1-450)
chain: MTATLTGGPDLQQARRILTEIPGPRSRDLAERRNAALPAGLASGAGVYIAAAGGGVVVDVDGNSFIDLGSGIAVTTVGNAAPAVVSRAGSQLAQYTHTCFLNVPYEPYIEVAERLNALTPGDHQKRTALFSTGAEAVENAVKYARAYTGRDAVVVFDHAFHGRSLLTMTMTAKNQPYKHGFGPFAPEVYRAPMAYPYRWPSGPENCAAEAFDLFTTLIDAQIGADQVACVVVEPIQGEGGFIVPAEGFLQKVADFCRERGILVVADEVQTGIARTGAWFACEHEDLVPDLITTAKGLGGGLPLAAVTGRAEIMDAAHAGGIGGTYAGNPVACAAALGVFDEIEQNGLIERARAIGEVIVAELRSIAATTGLIGEIRGRGAMIAVELIKPGTREPNKEAVAALAKHCHDNGVLTLTAGTFGNVLRFLPPLTITDELLVDAFGVIRDGFAAL
B8: Protein RecA (recombinase A) (protein, UniProt Q59560 1-349)
chain: MAQQAPDREKALELAMAQIDKNFGKGSVMRLGEEVRQPISVIPTGSISLDVALGIGGLPRGRVIEIYGPESSGKTTVALHAVANAQAAGGIAAFIDAEHALDPEYAKKLGVDTDSLLVSQPDTGEQALEIADMLVRSGALDIIVIDSVAALVPRAEIEGEMGDSHVGLQARLMSQALRKMTGALNNSGTTAIFINQLREKIGVMFGSPETTTGGKALKFYASVRLDVRRIETLKDGTDAVGNRTRVKVVKNKVSPPFKQAEFDILYGQGISREGSLIDMGVEHGFIRKSGSWFTYEGEQLGQGKENARKFLLENTDVANEIEKKIKEKLGIGAVVTAEADDVLPAPVDF
B9: Glyoxalase family protein (protein, UniProt A0QSB2 1-427)
chain: MNADHDPLTVLHQHDEPPVAPDPEFVARLRARLEAALTLPNRTEGVVMTGTDTAIAELKSPSQAAPRPAVISYLTVADARAAIGFYVDALGARVLGDPIVMDDGRIGHAELLLAGGVLYLADEFPEIGLKAPAPNAVSVSLMLSVPDTDAALARAAAHGARVQREPYEDHGTRNATFIDPSGHRWMLSGPVGVRVPVEAIRHGDVGYVSVWVPDADRAAAFYGHVLGWTYDPATRQVTNTQEHIGIFSVAGAPTMFCCYAVDDLDAARRAITAGGGTPGEVRESEFGTVLDATDPAGTAFAVFEPVPGTPRPAVNGTGPGSLSYITYNVPDSAAFKEFYGHVLSWTFEPGRIADGWGVQNCQPMSGMAGGSDRATTVPMWTVADIDAAVTRVREAGGTVISAPARQPYGLMAECTDDQGARFYLGEF
B10: 30S ribosomal protein S18 2 (protein, UniProt A0R7F7 1-84)
chain: MAKSNKRRPAPEKPVKTRKCVFCSKKGQTIDYKDTALLRTYISERGKIRARRVTGNCVQHQRDIAVAVKNAREVALLPFGSSTR
B11: Nitrogen regulatory protein P-II (protein, UniProt A0QV28 1-112)
chain: MKLITAIVKPFTLEDVKTGLEQTGILGMTVSEVQGYGRQKGHTEVYRGAEYSVDFVPKVRVEVVVDDSAVDKVVDVIVQAARTGKIGDGKVWVSPVETVVRVRTGERGADAL
B12: Transcriptional regulator, GntR family protein (protein, UniProt A0QZJ0 1-252)
chain: MSPTPDPQSAVPAREIAYRIVYDAIASGRYLPGQWIREDEVTAEAGVSRTPLREALQRLQSEGLVQLVRHRGALVVGWTSADLDDLFDIRVALETYGARRAAQRRGGAQLESLQKLCASMDEILPAAQEPELQQLGHLCIDFHRGIHEAADNRKLLSVMPMVLAPPFVSEAFHHHTRLELEQAFAHHRELVEAIAIGDEDWAEGVMRAHLRHGRRSLRRMERHLPLMTSHDAEPAVTDTGQPETTSSDPVHE
B13: ATPase, MoxR family protein (protein, UniProt A0QX24 1-348)
chain: MNNGGLQAEVHTLERAIFEVKRIIVGQDQLVERMLVGLLAKGHVLLEGVPGVAKTLAVETFAKVVGGTFARIQFTPDLVPTDIVGTRIYRQGKEEFEIELGPAVVNFLLADEINRAPAKVQSALLEIMAERKISIGGQTFPLPSPFLVMATQNPIEQEGVYQLPEAQRDRFLFKLNVDYPSPEEEREIIYRMGVKPPEPKQILTTGDLLRLQDVAANTFVHHALVDYVVRIVTATREPEKFGMPDAKAWIAYGASPRASLGIISAARALALVRGRDYVIPQDVVEVIPDVLRHRLVLTYDALADEISSETVVNRILQTVALPQVNALPQQGHSVPPAVPAAAAAASGR

Assays:
[1] = molecular target: ClpC1^NTD (ClpC1 N-terminal domain alone, aa 1 to 147, C-terminal 3xFLAG) (M. smegmatis) (UniProt A0R574); test: affinity purification with mass spectrometry; 3xFLAG-tagged ClpC1 construct expressed in M. smegmatis MC2155; lysate incubated with anti-FLAG M2 beads 1 h at 4°C in 25 mM HEPES, 10 mM MgCl2, 200 mM KCl, 0.1 mM EDTA, 10 mM ATP, pH 7.5; SDS-PAGE, in-gel trypsin digestion, LC-MS/MS; proteins seen in at least two of three biological replicates; proteins of the empty vector control ignored
[2] = molecular target: ClpC1^CORE (ClpC1 lacking the NTD, aa 158 to 848, C-terminal 3xFLAG) (M. smegmatis) (UniProt A0R574); test: as above

Binder	binding [1]	binding [2]
B1	binds	–
B2	–	binds
B3	binds	no binding
B4	binds	–
B5	no binding	binds
B6	binds	no binding
B7	binds	no binding
B8	no binding	binds
B9	no binding	binds
B10	binds	no binding
B11	binds	no binding
B12	–	binds
B13	binds	no binding
